Experimental findings from patent publication US20090324603A1 (VAN ANDEL RESEARCH INSTITUTE, published 2009) are described below.

The chains behind the UniProt entries cited, without tags or fusion partners. Residues count along the entry.
UniProt P08581, residues 25-932: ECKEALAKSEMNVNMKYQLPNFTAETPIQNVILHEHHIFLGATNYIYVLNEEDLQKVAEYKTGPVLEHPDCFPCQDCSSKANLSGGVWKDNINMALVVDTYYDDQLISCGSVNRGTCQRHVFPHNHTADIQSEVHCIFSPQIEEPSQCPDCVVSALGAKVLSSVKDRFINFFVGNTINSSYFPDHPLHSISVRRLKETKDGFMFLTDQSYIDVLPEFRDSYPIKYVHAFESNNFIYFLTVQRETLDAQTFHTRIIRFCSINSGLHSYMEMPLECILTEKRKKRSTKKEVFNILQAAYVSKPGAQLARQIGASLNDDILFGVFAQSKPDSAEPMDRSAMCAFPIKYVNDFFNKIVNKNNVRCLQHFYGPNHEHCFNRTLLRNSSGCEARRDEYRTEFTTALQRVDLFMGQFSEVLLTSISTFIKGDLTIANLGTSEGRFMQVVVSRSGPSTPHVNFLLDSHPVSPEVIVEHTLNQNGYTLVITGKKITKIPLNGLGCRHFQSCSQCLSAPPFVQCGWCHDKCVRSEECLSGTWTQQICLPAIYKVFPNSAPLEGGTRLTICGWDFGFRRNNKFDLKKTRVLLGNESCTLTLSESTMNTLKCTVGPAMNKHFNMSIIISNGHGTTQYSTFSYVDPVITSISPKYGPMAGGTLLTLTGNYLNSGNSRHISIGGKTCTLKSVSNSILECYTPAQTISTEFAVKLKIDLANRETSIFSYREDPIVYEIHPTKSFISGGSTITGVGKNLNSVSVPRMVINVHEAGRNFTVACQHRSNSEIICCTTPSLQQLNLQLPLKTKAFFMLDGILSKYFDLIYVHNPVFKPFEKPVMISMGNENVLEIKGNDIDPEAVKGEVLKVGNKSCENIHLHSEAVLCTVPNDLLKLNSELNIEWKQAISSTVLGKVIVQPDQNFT

No constants are given. Whether binding was seen depends on the method and setting. Some entries that bind do so weakly or less than the wild type.

The target of this assay is T1, recombinant c-Met antigen (human, UniProt P08581 25-932, limits assumed).
T1 construct: also called immobilized Met antigen; human Met antigen
Nature of the assay: monoclonal phage ELISA and sequencing of positive clones.

B1: anti-Met scFv-S1 (scFv)
scFv: ELQMTQSPSLLSASTGDRVTISCRASQSISSYLNWYQQKPGKAPKLLIYTRSSLQSGVPSRFSGSGSGTDFTLTISSLQPEDFATYYCQQSYSTPHTFGQGTKLEIKGGSSRSSSSGGGGSGGGGEVQLVESGGGVVQPGRSLRLSCAASGFTFSSYAMHWVRQAPGKGLEWVAVIWYDGSNRYYADSVKGRFTISRDNSKNTLYLQMNSLRAEDTAVYYCASQATEGLIWGQGTLVTVSP
notes: also called scFv Si; S1 phage
Turning to B1, the binding result is recorded as “binds”.
